{"sequences": {"note": "By UniProt entry, the sequences of proteins in these tests, tags left out. Where a name states a change or a piece, a line headed by the entry shows the natural chain unless it says otherwise.", "UniProt Q86W42": "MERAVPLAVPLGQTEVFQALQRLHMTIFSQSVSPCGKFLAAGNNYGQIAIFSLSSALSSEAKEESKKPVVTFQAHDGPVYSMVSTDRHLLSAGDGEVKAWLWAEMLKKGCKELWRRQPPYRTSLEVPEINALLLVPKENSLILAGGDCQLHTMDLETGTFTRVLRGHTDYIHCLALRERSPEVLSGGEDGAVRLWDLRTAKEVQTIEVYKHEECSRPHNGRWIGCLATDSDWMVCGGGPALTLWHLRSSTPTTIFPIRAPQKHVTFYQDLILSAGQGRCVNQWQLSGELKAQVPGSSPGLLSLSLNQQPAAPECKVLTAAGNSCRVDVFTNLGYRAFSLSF", "UniProt Q8NHU6": "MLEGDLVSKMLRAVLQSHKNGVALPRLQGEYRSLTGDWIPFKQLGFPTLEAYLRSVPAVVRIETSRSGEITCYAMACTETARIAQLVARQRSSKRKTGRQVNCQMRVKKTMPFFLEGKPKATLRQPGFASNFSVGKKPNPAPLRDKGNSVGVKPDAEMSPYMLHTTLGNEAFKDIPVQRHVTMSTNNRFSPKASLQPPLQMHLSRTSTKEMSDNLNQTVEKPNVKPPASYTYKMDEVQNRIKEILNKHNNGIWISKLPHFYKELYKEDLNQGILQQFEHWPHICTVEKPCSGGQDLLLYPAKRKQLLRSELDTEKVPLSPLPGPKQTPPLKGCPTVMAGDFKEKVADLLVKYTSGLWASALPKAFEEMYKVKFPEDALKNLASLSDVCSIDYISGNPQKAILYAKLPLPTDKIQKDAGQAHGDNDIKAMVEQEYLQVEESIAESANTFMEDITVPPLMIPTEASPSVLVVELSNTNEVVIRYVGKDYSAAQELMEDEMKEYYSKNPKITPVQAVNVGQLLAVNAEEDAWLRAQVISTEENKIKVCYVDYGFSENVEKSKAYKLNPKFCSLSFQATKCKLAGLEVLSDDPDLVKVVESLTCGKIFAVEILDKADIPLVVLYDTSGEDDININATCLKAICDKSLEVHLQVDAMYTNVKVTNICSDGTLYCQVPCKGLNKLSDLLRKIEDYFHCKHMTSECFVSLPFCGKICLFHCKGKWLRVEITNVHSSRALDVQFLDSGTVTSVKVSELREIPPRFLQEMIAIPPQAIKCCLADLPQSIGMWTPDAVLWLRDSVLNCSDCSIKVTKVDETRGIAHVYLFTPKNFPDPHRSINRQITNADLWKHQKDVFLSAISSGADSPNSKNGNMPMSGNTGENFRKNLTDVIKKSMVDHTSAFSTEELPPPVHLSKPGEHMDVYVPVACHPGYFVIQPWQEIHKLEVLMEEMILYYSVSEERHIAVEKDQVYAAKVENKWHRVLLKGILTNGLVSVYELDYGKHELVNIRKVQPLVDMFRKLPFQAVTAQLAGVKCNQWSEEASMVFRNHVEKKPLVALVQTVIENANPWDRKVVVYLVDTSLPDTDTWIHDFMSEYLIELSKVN", "UniProt Q8NI27": "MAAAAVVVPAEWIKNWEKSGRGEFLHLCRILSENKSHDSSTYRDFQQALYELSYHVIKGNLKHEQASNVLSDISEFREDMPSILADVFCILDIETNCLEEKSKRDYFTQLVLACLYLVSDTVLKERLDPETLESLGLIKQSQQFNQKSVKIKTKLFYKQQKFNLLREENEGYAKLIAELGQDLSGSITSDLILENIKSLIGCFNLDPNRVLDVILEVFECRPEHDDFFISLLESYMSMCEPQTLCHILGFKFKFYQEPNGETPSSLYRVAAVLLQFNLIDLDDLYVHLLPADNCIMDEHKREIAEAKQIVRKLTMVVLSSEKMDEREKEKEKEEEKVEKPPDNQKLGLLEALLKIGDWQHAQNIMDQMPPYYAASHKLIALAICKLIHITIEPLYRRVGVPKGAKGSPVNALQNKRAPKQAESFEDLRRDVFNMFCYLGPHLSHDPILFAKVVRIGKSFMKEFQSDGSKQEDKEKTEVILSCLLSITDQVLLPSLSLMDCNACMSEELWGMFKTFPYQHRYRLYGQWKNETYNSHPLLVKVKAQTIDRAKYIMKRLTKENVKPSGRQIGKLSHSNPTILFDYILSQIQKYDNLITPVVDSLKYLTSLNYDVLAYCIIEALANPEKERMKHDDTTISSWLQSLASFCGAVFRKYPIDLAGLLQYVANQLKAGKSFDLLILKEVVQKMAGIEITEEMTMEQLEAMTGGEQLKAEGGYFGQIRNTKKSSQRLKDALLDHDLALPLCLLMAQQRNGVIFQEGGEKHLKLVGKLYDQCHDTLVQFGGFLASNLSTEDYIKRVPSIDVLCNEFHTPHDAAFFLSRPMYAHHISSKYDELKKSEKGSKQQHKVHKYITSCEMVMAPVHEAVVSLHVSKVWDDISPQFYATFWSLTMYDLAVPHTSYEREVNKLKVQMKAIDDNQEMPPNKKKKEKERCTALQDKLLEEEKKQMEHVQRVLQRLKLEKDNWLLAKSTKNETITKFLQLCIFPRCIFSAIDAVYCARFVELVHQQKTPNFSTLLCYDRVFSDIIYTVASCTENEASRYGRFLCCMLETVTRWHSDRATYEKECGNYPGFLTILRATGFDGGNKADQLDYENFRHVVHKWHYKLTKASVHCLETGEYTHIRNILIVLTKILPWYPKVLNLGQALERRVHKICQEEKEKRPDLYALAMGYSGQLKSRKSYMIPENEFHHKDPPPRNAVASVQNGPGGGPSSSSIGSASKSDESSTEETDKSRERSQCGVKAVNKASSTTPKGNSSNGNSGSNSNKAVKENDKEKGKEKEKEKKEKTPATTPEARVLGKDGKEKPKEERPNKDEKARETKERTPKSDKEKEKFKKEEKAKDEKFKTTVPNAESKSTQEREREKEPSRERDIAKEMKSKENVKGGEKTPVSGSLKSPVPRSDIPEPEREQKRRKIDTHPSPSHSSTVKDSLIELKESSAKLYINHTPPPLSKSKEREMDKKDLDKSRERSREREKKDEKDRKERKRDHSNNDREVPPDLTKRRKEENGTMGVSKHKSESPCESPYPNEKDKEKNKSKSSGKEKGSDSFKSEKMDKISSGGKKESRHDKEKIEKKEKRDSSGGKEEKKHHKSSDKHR", "UniProt Q9Y6I9": "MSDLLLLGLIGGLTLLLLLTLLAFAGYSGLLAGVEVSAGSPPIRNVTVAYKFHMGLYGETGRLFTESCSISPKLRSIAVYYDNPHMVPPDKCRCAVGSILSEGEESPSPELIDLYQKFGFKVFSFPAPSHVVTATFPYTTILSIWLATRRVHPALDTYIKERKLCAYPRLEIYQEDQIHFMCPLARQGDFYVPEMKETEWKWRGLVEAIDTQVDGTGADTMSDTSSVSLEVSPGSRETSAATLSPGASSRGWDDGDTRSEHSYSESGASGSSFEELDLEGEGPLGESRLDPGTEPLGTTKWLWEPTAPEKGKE", "UniProt Q04726": "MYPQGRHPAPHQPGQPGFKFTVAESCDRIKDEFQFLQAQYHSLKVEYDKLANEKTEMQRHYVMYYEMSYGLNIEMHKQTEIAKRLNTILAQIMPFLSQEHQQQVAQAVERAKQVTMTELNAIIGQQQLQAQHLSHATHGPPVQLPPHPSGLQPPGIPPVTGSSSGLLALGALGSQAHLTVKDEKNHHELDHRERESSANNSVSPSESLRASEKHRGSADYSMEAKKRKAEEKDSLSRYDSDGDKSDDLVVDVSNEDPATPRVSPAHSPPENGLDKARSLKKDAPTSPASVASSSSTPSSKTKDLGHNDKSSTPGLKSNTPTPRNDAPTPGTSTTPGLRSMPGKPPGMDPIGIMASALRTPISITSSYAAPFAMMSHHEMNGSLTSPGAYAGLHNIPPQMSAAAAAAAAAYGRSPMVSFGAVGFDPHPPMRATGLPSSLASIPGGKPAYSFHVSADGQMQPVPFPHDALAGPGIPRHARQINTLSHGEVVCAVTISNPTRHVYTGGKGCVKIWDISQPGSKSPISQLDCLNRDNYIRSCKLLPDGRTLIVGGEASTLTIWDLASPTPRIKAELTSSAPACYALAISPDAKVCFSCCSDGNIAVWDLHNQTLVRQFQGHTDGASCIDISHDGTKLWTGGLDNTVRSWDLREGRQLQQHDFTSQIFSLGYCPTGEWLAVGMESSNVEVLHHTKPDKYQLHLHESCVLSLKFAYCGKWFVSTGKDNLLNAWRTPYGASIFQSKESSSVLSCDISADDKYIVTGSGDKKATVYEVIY", "UniProt Q9UGU0": "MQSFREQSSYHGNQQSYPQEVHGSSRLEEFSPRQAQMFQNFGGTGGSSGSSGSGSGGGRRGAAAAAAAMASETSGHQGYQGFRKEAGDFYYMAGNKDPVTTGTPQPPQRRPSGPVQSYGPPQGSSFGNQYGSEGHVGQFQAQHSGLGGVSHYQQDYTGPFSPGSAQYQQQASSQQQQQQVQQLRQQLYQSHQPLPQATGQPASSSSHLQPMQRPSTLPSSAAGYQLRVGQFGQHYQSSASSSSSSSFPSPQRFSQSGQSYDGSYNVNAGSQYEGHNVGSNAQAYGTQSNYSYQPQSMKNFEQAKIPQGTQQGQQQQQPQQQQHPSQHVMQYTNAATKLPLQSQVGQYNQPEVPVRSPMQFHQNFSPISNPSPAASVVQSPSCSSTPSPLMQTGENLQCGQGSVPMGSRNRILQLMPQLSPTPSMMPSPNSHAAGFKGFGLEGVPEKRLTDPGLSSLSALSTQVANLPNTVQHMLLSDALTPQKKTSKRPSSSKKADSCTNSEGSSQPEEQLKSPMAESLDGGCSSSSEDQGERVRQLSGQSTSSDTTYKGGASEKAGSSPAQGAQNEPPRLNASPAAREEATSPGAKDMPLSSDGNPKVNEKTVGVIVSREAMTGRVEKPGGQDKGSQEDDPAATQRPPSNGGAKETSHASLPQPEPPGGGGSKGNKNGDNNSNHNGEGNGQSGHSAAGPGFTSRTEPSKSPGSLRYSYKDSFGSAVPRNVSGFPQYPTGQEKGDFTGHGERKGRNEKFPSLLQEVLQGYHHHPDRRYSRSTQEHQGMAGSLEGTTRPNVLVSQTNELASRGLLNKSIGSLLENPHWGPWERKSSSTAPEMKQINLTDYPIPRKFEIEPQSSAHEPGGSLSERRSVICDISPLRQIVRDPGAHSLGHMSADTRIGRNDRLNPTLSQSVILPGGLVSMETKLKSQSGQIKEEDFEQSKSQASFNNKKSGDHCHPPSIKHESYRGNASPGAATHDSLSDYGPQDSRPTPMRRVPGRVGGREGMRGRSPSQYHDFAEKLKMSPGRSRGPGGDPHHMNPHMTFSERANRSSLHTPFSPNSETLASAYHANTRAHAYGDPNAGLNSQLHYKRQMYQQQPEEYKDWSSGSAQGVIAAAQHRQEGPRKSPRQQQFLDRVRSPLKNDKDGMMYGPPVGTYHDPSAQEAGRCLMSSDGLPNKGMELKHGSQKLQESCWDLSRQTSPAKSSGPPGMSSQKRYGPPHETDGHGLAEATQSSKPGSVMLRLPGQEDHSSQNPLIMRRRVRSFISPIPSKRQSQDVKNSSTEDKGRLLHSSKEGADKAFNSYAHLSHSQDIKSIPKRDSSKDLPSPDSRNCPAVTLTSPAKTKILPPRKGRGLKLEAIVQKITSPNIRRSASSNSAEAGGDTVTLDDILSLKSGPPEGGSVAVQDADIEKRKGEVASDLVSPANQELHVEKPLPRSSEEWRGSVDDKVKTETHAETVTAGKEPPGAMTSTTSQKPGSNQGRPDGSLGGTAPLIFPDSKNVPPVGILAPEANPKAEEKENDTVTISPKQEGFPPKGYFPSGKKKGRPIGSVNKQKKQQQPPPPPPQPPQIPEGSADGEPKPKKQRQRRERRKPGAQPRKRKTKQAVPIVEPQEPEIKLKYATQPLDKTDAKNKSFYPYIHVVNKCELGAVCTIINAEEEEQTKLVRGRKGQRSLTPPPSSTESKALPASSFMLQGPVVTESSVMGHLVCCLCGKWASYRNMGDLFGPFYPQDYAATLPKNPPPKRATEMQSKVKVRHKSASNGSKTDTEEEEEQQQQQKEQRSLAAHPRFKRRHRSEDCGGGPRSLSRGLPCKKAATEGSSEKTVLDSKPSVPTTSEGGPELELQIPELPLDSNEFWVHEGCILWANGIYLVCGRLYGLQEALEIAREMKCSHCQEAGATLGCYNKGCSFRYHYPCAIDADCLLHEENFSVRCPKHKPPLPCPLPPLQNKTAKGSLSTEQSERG", "UniProt Q9Y5J9": "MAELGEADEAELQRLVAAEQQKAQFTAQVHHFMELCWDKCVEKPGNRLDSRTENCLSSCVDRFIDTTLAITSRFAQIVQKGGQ", "UniProt Q9UGI8": "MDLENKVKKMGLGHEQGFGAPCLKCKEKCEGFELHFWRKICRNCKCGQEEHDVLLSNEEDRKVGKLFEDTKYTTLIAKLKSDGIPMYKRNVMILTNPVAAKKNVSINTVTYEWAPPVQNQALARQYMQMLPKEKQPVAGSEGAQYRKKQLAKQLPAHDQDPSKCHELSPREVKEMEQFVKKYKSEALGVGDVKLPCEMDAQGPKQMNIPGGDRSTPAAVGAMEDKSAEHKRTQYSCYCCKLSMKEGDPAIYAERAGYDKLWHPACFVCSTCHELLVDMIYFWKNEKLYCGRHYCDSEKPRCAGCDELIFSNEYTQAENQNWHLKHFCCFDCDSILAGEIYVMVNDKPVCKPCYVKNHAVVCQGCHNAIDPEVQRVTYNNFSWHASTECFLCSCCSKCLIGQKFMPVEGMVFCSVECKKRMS"}, "source": "the supplement of paper PMC12067093", "about": "“Discovery and optimisation of a covalent ligand for TRIM25 and its application to targeted protein ubiquitination” (Chemical Science, 2025)", "compound": "CC1Cc2ccccc2N1C(=O)C1CCCN(C1)C(=O)CCl (mixture of isomers) [TRIM25 ligand 11 (diastereomer mixture)]", "experiment": "probe-labelled cysteine peptide fold change vs DMSO (competition) (log2 fold change); higher = less target engagement (more negative = stronger competition)", "conditions": "THP-1, incubation time: 4 h", "note": "The list shows a part of the results.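 Further: competitive chemoproteomic profiling in live THP-1 cells with an iodoacetamide desthiobiotin (IA-DTB) probe, comparing probe-labelled peptide intensities in compound-treated cells against DMSO-treated controls.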"}
{"target": "THBD_P07204_175_ADGFLCEFHFPATCRPLAVEPGAAAAAVSITYGTPFAAR (UniProt P07204)", "values": [{"measurement": "probe-labelled cysteine peptide fold change", "setting": "10 µM", "value": 0.126}, {"measurement": "probe-labelled cysteine peptide fold change", "setting": "50 µM", "value": -0.191}]}
{"target": "THOC6_Q86W42_214_EVQTIEVYKHEECSR (UniProt Q86W42)", "values": [{"measurement": "probe-labelled cysteine peptide fold change", "setting": "10 µM", "value": -0.0305}, {"measurement": "probe-labelled cysteine peptide fold change", "setting": "50 µM", "value": 0.0461}]}
{"target": "TDRD3_Q9H7E2_377_CDRPYSR (UniProt Q9H7E2)", "values": [{"measurement": "probe-labelled cysteine peptide fold change", "setting": "10 µM", "value": -0.0819}, {"measurement": "probe-labelled cysteine peptide fold change", "setting": "50 µM", "value": -0.0934}]}
{"target": "THUMPD3_Q9BV44_239_HCFTSNEAAR (UniProt Q9BV44)", "values": [{"measurement": "probe-labelled cysteine peptide fold change", "setting": "10 µM", "value": -0.0112}, {"measurement": "probe-labelled cysteine peptide fold change", "setting": "50 µM", "value": 0.0964}]}
{"target": "TDRD7_Q8NHU6_1029_CNQWSEEASMVFR (UniProt Q8NHU6)", "values": [{"measurement": "probe-labelled cysteine peptide fold change", "setting": "10 µM", "value": 0.0828}, {"measurement": "probe-labelled cysteine peptide fold change", "setting": "50 µM", "value": -0.137}]}
{"target": "THOC5_Q13769_613_ELCGPWPSHQLLTNQLQR (UniProt Q13769)", "values": [{"measurement": "probe-labelled cysteine peptide fold change", "setting": "10 µM", "value": 0.00273}, {"measurement": "probe-labelled cysteine peptide fold change", "setting": "50 µM", "value": 0.15}]}
{"target": "TGM2_P21980_371_SEGTYCCGPVPVR (UniProt P21980)", "values": [{"measurement": "probe-labelled cysteine peptide fold change", "setting": "10 µM", "value": -0.0787}, {"measurement": "probe-labelled cysteine peptide fold change", "setting": "50 µM", "value": -0.00707}]}
{"target": "THOC2_Q8NI27_804_RVPSIDVLCNEFHTPHDAAFFLSR (UniProt Q8NI27)", "values": [{"measurement": "probe-labelled cysteine peptide fold change", "setting": "10 µM", "value": 0.151}, {"measurement": "probe-labelled cysteine peptide fold change", "setting": "50 µM", "value": 0.0437}]}
{"target": "TFCP2_Q12800_369_DDVIQICGPADGIR (UniProt Q12800)", "values": [{"measurement": "probe-labelled cysteine peptide fold change", "setting": "10 µM", "value": 0.0474}, {"measurement": "probe-labelled cysteine peptide fold change", "setting": "50 µM", "value": 0.0953}]}
{"target": "TDRD7_Q8NHU6_103_QVNCQMR (UniProt Q8NHU6)", "values": [{"measurement": "probe-labelled cysteine peptide fold change", "setting": "10 µM", "value": -0.127}, {"measurement": "probe-labelled cysteine peptide fold change", "setting": "50 µM", "value": -0.0111}]}
{"target": "TEX264_Q9Y6I9_68_LFTESCSISPK (UniProt Q9Y6I9)", "values": [{"measurement": "probe-labelled cysteine peptide fold change", "setting": "10 µM", "value": -0.0195}, {"measurement": "probe-labelled cysteine peptide fold change", "setting": "50 µM", "value": 0.0367}]}
{"target": "TEP1_Q99973_2275_EADDTCIPR (UniProt Q99973)", "values": [{"measurement": "probe-labelled cysteine peptide fold change", "setting": "10 µM", "value": 0.00158}, {"measurement": "probe-labelled cysteine peptide fold change", "setting": "50 µM", "value": -0.202}]}
{"target": "THOC2_Q8NI27_1111_ASVHCLETGEYTHIR (UniProt Q8NI27)", "values": [{"measurement": "probe-labelled cysteine peptide fold change", "setting": "10 µM", "value": 0.159}, {"measurement": "probe-labelled cysteine peptide fold change", "setting": "50 µM", "value": 0.0514}]}
{"target": "TGFBI_Q15582_49_QHGPNVCAVQK (UniProt Q15582)", "values": [{"measurement": "probe-labelled cysteine peptide fold change", "setting": "10 µM", "value": 0.331}, {"measurement": "probe-labelled cysteine peptide fold change", "setting": "50 µM", "value": 0.203}]}
{"target": "THOC6_Q86W42_279_CVNQWQLSGELK (UniProt Q86W42)", "values": [{"measurement": "probe-labelled cysteine peptide fold change", "setting": "10 µM", "value": 0.0536}, {"measurement": "probe-labelled cysteine peptide fold change", "setting": "50 µM", "value": 0.0906}]}
{"target": "TDRD7_Q8NHU6_692_KIEDYFHCK (UniProt Q8NHU6)", "values": [{"measurement": "probe-labelled cysteine peptide fold change", "setting": "10 µM", "value": 0.057}, {"measurement": "probe-labelled cysteine peptide fold change", "setting": "50 µM", "value": -0.0418}]}
{"target": "THADA_Q6YHU6_464_YTCLGCLVECIGVEHILAIDK (UniProt Q6YHU6)", "values": [{"measurement": "probe-labelled cysteine peptide fold change", "setting": "10 µM", "value": 0.442}, {"measurement": "probe-labelled cysteine peptide fold change", "setting": "50 µM", "value": 0.382}]}
{"target": "TGFBRAP1_Q8WUH2_33_VNIECVECCGR (UniProt Q8WUH2)", "values": [{"measurement": "probe-labelled cysteine peptide fold change", "setting": "10 µM", "value": 0.119}, {"measurement": "probe-labelled cysteine peptide fold change", "setting": "50 µM", "value": 0.199}]}
{"target": "TGFBR1_P36897_71_VIHNSMCIAEIDLIPR (UniProt P36897)", "values": [{"measurement": "probe-labelled cysteine peptide fold change", "setting": "10 µM", "value": 0.0712}, {"measurement": "probe-labelled cysteine peptide fold change", "setting": "50 µM", "value": -0.0559}]}
{"target": "TDP1_Q9NUW8_48_YTCSEAQK (UniProt Q9NUW8)", "values": [{"measurement": "probe-labelled cysteine peptide fold change", "setting": "10 µM", "value": -0.0326}, {"measurement": "probe-labelled cysteine peptide fold change", "setting": "50 µM", "value": -0.332}]}
{"target": "TENT2_Q6PIY7_431_YICVEEPFDGTNTAR (UniProt Q6PIY7)", "values": [{"measurement": "probe-labelled cysteine peptide fold change", "setting": "10 µM", "value": -0.0904}, {"measurement": "probe-labelled cysteine peptide fold change", "setting": "50 µM", "value": -0.0996}]}
{"target": "TGFBRAP1_Q8WUH2_700_ALHILVHELQDFAAAEDYCLWCSEGRDPPHR (UniProt Q8WUH2)", "values": [{"measurement": "probe-labelled cysteine peptide fold change", "setting": "10 µM", "value": 0.0726}, {"measurement": "probe-labelled cysteine peptide fold change", "setting": "50 µM", "value": 0.233}]}
{"target": "TLE3_Q04726_26_FTVAESCDR (UniProt Q04726)", "values": [{"measurement": "probe-labelled cysteine peptide fold change", "setting": "10 µM", "value": 0.0783}, {"measurement": "probe-labelled cysteine peptide fold change", "setting": "50 µM", "value": 0.196}]}
{"target": "TCF20_Q9UGU0_498_KADSCTNSEGSSQPEEQLK (UniProt Q9UGU0)", "values": [{"measurement": "probe-labelled cysteine peptide fold change", "setting": "10 µM", "value": -0.164}, {"measurement": "probe-labelled cysteine peptide fold change", "setting": "50 µM", "value": -0.173}]}
{"target": "TCERG1_O14776_535_AKPVATAPIPGTPWCVVWTGDER (UniProt O14776)", "values": [{"measurement": "probe-labelled cysteine peptide fold change", "setting": "10 µM", "value": -0.00115}, {"measurement": "probe-labelled cysteine peptide fold change", "setting": "50 µM", "value": 0.147}]}
{"target": "TIMM8B_Q9Y5J9_59_TENCLSSCVDR (UniProt Q9Y5J9)", "values": [{"measurement": "probe-labelled cysteine peptide fold change", "setting": "10 µM", "value": -0.102}, {"measurement": "probe-labelled cysteine peptide fold change", "setting": "50 µM", "value": -0.204}]}
{"target": "TCF20_Q9UGU0_1918_YHYPCAIDADCLLHEENFSVR (UniProt Q9UGU0)", "values": [{"measurement": "probe-labelled cysteine peptide fold change", "setting": "10 µM", "value": 0.02}, {"measurement": "probe-labelled cysteine peptide fold change", "setting": "50 µM", "value": -0.108}]}
{"target": "THOC6_Q86W42_173_GHTDYIHCLALR (UniProt Q86W42)", "values": [{"measurement": "probe-labelled cysteine peptide fold change", "setting": "10 µM", "value": 0.0588}, {"measurement": "probe-labelled cysteine peptide fold change", "setting": "50 µM", "value": 0.136}]}
{"target": "THG1L_Q9NWX6_279_TKPVPLHCDIIGDAFWK (UniProt Q9NWX6)", "values": [{"measurement": "probe-labelled cysteine peptide fold change", "setting": "10 µM", "value": -0.117}, {"measurement": "probe-labelled cysteine peptide fold change", "setting": "50 µM", "value": -0.263}]}
{"target": "TLE3_Q04726_528_SPISQLDCLNR (UniProt Q04726)", "values": [{"measurement": "probe-labelled cysteine peptide fold change", "setting": "10 µM", "value": -0.0741}, {"measurement": "probe-labelled cysteine peptide fold change", "setting": "50 µM", "value": -0.0787}]}
{"target": "TES_Q9UGI8_361_NHAVVCQGCHNAIDPEVQR (UniProt Q9UGI8)", "values": [{"measurement": "probe-labelled cysteine peptide fold change", "setting": "10 µM", "value": 0.0247}, {"measurement": "probe-labelled cysteine peptide fold change", "setting": "50 µM", "value": -0.00899}]}
{"target": "TIMP3_P35625_184_HYACIR (UniProt P35625)", "values": [{"measurement": "probe-labelled cysteine peptide fold change", "setting": "10 µM", "value": 0.00106}, {"measurement": "probe-labelled cysteine peptide fold change", "setting": "50 µM", "value": 0.0197}]}
{"target": "TEX10_Q9NXF1_454_DCSWIEMIR (UniProt Q9NXF1)", "values": [{"measurement": "probe-labelled cysteine peptide fold change", "setting": "10 µM", "value": 0.0904}, {"measurement": "probe-labelled cysteine peptide fold change", "setting": "50 µM", "value": 0.212}]}
{"target": "TKT_P29401_206+225_CEAFGWHAIIVDGHSVEELCK (UniProt P29401)", "values": [{"measurement": "probe-labelled cysteine peptide fold change", "setting": "10 µM", "value": 0.0902}, {"measurement": "probe-labelled cysteine peptide fold change", "setting": "50 µM", "value": -0.0357}]}
{"target": "TES_Q9UGI8_196_LPCEMDAQGPK (UniProt Q9UGI8)", "values": [{"measurement": "probe-labelled cysteine peptide fold change", "setting": "10 µM", "value": -0.0841}, {"measurement": "probe-labelled cysteine peptide fold change", "setting": "50 µM", "value": -0.114}]}
{"target": "TEC_P42680_74_NDDGVIPCQNK (UniProt P42680)", "values": [{"measurement": "probe-labelled cysteine peptide fold change", "setting": "10 µM", "value": 0.0448}, {"measurement": "probe-labelled cysteine peptide fold change", "setting": "50 µM", "value": 0.0111}]}
{"target": "TKT_P29401_362+376_EHPDRFIECYIAEQNMVSIAVGCATR (UniProt P29401)", "values": [{"measurement": "probe-labelled cysteine peptide fold change", "setting": "10 µM", "value": 0.0379}, {"measurement": "probe-labelled cysteine peptide fold change", "setting": "50 µM", "value": 0.0881}]}
{"target": "TLDC1_Q6P9B6_310_HVFGGFASCSWEVKPQFQGDNR (UniProt Q6P9B6)", "values": [{"measurement": "probe-labelled cysteine peptide fold change", "setting": "10 µM", "value": 0.2}, {"measurement": "probe-labelled cysteine peptide fold change", "setting": "50 µM", "value": 0.184}]}
{"target": "TEPSIN_Q96N21_463_RGPSSCAWSR (UniProt Q96N21)", "values": [{"measurement": "probe-labelled cysteine peptide fold change", "setting": "10 µM", "value": -0.0656}, {"measurement": "probe-labelled cysteine peptide fold change", "setting": "50 µM", "value": -0.113}]}
